# Results as given in US20230357425A1.
# These are yes or no findings as the source states them, for the method shown. Binding calls can cover weak binding; strength is not graded here.
# B1: Tab1 (antibody, human IgG1, lambda, V domains shown)
# VH: EVQLLESGGGLVQPGGSLRLSCAASGFTFSSYAYSWVRQAPGKGLEWVSAISGSGGRTYYADSVKGRFTISRDNSKNTLYLQMNSLRAEDTAVYYCARLGYGRVDEWGRGTLVTVSS
# VL: QSVLTQPPSASGTPGQRVTISCSGSLSNIGRNPVNWYQQLPGTAPKLLIYLDNLRLSGVPDRFSGSKSGTSASLAISGLQSEDEADYYCATWDDSHPGWTFGGGTKLTVLG
# Biological target: Cynomolgus monkey CD73 on HEK293-cynoCD73 stable cell line (cynomolgus monkey)
# Experiment: flow cytometry on HEK293-cynoCD73 stable cells
binder,measurement,value
B1,binding,binds
